No constants are given. Whether binding was seen depends on the method and setting. For some assays here: In cells and extracts the contact can be indirect. Some entries that bind do so weakly or less than the wild type. For some assays here: Sequences can lack the tags named with a protein.
Assays:
[1] = target: full-length MCL1 fused to the GAL4 DNA-binding domain (pAS2.1-MCL1) (UniProt P04386); test: yeast two-hybrid library screen, GAL4 DNA-BD-MCL1 bait against a human fetal liver library
[2] = target: p53 (UniProt P04637); test: co-immunoprecipitation with anti-HA antibody (3F10) from lysate of stable U2OS transfectants, Western blot with anti-p53
[3] = target: p53 (UniProt P04637); test: co-immunoprecipitation of endogenous proteins from U2OS lysate with anti-p53 antibody DO-1, Western blot with anti-fortilin
[4] = target: p53 (UniProt P04637); test: GST pull-down with Glutathione Sepharose 4B, in vitro translated [35S]-labelled p53, fluorography
[5] = target: MCL1 (Myeloid Cell Leukemia 1) (UniProt Q07820); test: GST pull-down with Glutathione Sepharose 4B, in vitro translated [35S]-labelled MCL1, fluorography

The chains behind the UniProt entries cited, without tags or fusion partners. Where a name states a change or a piece, a line headed by the entry shows the natural chain unless it says otherwise.
UniProt P04386: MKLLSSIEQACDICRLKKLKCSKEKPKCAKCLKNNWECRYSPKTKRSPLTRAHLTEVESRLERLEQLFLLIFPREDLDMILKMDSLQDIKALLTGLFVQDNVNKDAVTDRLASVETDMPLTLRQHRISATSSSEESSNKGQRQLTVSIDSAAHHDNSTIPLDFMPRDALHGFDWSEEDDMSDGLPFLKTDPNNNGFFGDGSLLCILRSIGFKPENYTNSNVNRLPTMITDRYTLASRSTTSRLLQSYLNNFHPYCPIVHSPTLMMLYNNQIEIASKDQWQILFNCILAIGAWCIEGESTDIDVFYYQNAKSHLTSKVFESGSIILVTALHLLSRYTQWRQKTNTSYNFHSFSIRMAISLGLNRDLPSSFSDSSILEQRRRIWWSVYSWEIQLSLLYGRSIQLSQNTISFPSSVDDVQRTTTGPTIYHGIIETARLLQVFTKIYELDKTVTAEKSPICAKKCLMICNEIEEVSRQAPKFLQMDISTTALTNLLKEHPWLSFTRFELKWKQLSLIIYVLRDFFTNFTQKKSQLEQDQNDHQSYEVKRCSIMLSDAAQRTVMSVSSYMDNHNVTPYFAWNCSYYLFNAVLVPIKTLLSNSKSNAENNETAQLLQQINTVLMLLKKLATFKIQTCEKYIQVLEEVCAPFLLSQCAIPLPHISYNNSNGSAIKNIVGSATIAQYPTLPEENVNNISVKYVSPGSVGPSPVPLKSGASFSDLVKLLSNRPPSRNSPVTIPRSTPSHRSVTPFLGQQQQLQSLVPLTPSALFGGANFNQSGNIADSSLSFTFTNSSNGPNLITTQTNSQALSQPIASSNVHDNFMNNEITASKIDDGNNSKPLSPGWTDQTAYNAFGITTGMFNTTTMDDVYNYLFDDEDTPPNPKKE
UniProt Q07820: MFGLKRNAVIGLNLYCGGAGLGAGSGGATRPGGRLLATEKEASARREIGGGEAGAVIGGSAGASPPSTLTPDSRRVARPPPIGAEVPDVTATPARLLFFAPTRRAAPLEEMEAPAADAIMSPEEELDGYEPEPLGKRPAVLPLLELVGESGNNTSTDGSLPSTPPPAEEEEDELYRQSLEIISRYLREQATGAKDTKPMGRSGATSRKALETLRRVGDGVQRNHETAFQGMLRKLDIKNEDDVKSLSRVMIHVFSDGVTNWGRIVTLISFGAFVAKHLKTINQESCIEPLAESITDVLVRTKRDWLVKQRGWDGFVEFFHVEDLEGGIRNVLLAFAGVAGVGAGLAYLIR

B1: FL1 (Fortilin amino acids 5-172) fused to the GAL4 DNA-activating domain (protein, not shown: large carriers)
chain: RDLISHDEMFSDIYKIREIADGLCLEVEGKMVSRTEGNIDDSLIGGNASAEGPEGEGTESTVITGVDIVMNHHLQETSFTKEAYKKYIKDYMKSIKGKLEEQRPERVKPFMTGAAEQIKHILANFKNYQFFIGENMNPDGMVALLDYREDGVTPYMIFFKDGLEMEKC
For B1, the binding [1] was “binds”.

B2: HA-fortilin stably expressed in U2OS cells (Example 12) (protein, not shown: small tags and cut ends)
chain: MIIYRDLISHDEMFSDIYKIREIADGLCLEVEGKMVSRTEGNIDDSLIGGNASAEGPEGEGTESTVITGVDIVMNHHLQETSFTKEAYKKYIKDYMKSIKGKLEEQRPERVKPFMTGAAEQIKHILANFKNYQFFIGENMNPDGMVALLDYREDGVTPYMIFFKDGLEMEKC
With B2 the binding [2] was “binds”.

B3: Fortilin (Translationally Controlled Tumor Protein, TCTP), native (protein)
chain: MIIYRDLISHDEMFSDIYKIREIADGLCLEVEGKMVSRTEGNIDDSLIGGNASAEGPEGEGTESTVITGVDIVMNHHLQETSFTKEAYKKYIKDYMKSIKGKLEEQRPERVKPFMTGAAEQIKHILANFKNYQFFIGENMNPDGMVALLDYREDGVTPYMIFFKDGLEMEKC
In the case of B3, the binding [3] is reported as “binds”.

B4: recombinant GST-Fortilin (protein, not shown: a dimerising Fc or GST)
chain: MIIYRDLISHDEMFSDIYKIREIADGLCLEVEGKMVSRTEGNIDDSLIGGNASAEGPEGEGTESTVITGVDIVMNHHLQETSFTKEAYKKYIKDYMKSIKGKLEEQRPERVKPFMTGAAEQIKHILANFKNYQFFIGENMNPDGMVALLDYREDGVTPYMIFFKDGLEMEKC
With B4 the binding [4] was “binds” and the binding [5] was “binds”.
